Measured values published in patent US8093302B2, “Substituted tetralins as selective estrogen receptor-β agonists” (Eli Lilly and Company, priority 2006, dated 2012).
Some results were stated once for a whole list of compounds, not compound by compound. Some ranges recur; such a range may be that of the whole group of compounds.

Protein sequences, listed by entry. Tags and fused reporters are not part of them.
UniProt Q92731, whole entry: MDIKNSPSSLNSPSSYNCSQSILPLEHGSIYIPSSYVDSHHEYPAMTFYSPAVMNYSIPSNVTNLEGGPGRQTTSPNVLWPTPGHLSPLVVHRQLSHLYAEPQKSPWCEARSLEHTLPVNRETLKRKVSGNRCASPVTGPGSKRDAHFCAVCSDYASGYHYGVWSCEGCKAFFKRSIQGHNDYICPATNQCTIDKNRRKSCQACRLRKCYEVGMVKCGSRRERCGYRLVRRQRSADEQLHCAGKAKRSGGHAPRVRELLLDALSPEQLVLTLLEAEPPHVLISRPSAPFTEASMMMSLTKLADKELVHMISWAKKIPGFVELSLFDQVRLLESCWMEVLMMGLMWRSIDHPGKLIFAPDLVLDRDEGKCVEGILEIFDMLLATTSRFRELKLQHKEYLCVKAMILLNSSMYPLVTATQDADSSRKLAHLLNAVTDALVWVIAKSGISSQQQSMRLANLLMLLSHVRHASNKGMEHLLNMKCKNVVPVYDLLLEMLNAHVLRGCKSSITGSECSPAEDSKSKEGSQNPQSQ

Target: T1, ER-β Receptor (Homo sapiens, UniProt Q92731)
T1 construct: purchased PanVera
Assay: competition ER binding assay (3H-Estradiol), ER-β
Conditions: approximate range; Ki from IC50 by Cheng-Prusoff

SMILES	binding affinities (Ki) to the ER-β subtype [pM]
Oc1ccc([C@H]2[C@H]3CCCC[C@H]3c3cc(O)ccc3[C@H]2CBr)cc1 (stereo in doubt) [Example 50, 10-Bromomethyl-9-(4-hydroxy-phenyl)-4b,5,6,7,8,8a,9,10-octahydro-phenanthrene-3-ol]	200 to 500000
CC[C@H]1c2ccc(O)cc2[C@@H]2CCCC[C@@H]2[C@@H]1c1ccc(O)cc1 (stereo in doubt) [Example 53, 10-Ethyl-9-(4-hydroxy-phenyl)-4b,5,6,7,8,8a,9,10-octahydro-phenanthrene-3-ol]	200 to 500000
OC[C@H]1c2ccc(O)cc2[C@@H]2CCCC[C@@H]2[C@@H]1c1ccc(O)cc1 (stereo in doubt) [Example 54, 10-Hydroxymethyl-9-(4-hydroxy-phenyl)-4b,5,6,7,8,8a,9,10-octahydro-phenanthren-3-ol]	200 to 500000
COC[C@H]1c2ccc(O)cc2[C@@H]2CCCC[C@@H]2[C@@H]1c1ccc(O)cc1 (stereo in doubt) [Example 55, 9-(4-Hydroxy-phenyl)-10-methoxymethyl-4b,5,6,7,8,8a,9,10-octahydro-phenanthren-3-ol]	200 to 500000
CC(=O)[C@H]1c2ccc(O)cc2[C@@H]2CCCC[C@@H]2[C@@H]1c1ccc(O)cc1 (stereo in doubt) [Example 56, 1-[6-Hydroxy-10-(4-hydroxy-phenyl)-1,2,3,4,4a,9,10,10a-octahydro-phenanthren-9-yl]-ethanone]	200 to 500000
CC(O)[C@H]1c2ccc(O)cc2[C@@H]2CCCC[C@@H]2[C@@H]1c1ccc(O)cc1 (stereo in doubt) [Example 57, 10-(1-Hydroxy-ethyl)-9-(4-hydroxy-phenyl)-4b,5,6,7,8,8a,9,10-octahydro-phenanthren-3-ol]	200 to 500000
Oc1ccc([C@@H]2Cc3c(O)cc(O)cc3[C@@H]3CCC[C@H]23)cc1 [Example 3, 4-(4-Hydroxy-phenyl)-2,3,3a,4,5,9b-hexahydro4H-cyclopenta[a]naphthalene-6,8-diol]	200 to 500000
Oc1ccc2c(c1)[C@@H]1CCCC[C@@H]1[C@H](c1ccc(O)c(F)c1)C2 [Example 5, 9-(3-Fluoro-4-hydroxy-phenyl)-4b,5,6,7,8,80,10-octahydro-phenanthren-3-ol]	200 to 500000
Oc1ccc([C@H]2[C@H]3CCCC[C@H]3c3cc(O)ccc3[C@@H]2CN2CCCC2)cc1 [Example 52, 9-(4-Hydroxy-phenyl)-10-pyrrolidin-1-ylmelthyl-4b,5,6,7,8,8a,9,10-octahydro-phenanthrene-3-ol]	200 to 500000
Nc1c(O)ccc2c1C1CCCCC1C(c1ccc(O)cc1)C2 (stereo not shown) [Example 59, 4-Amino-9-(4-hydroxy-phenyl)-4b,5,6,7,8,8a,9,10-octahydro-phenanthren-3-ol]	200 to 500000
